According to patent US20110082091A1, “Method for Preclinical Testing of Immunomodulatory Drugs” (TheraMAB GmbH, priority 2009, published 2011):
At least one structure is not confirmed: it was looked up by name or label, or the drawing left a doubt.

Tested on: human PBMCs
Test: Corticosteroid suppression of mAb-induced cytokine release in high-density precultured PBMCs
Assay type: cell-based
Settings: 24 hours

C[C@@H]1C[C@H]2[C@@H]3CCC4=CC(=O)C=C[C@]4(C)[C@@]3(F)[C@@H](O)C[C@]2(C)[C@@]1(O)C(=O)CO [dexamethasone]
suppression of OKT3-induced cytokine release (dexamethasone 100 nM): almost completely suppressed
suppression of TGN1412-induced cytokine release (dexamethasone 100 nM): almost completely suppressed
suppression of OKT3-induced cytokine release (dexamethasone 1 μM): fully suppressed
suppression of TGN1412-induced cytokine release (dexamethasone 1 μM): fully suppressed
